# Values of other authors as cited in US20100152239A1, “Method to Improve Survival in Sepsis” (priority 2008, published 2010).
# For at least one compound, name, drawing or mass did not settle the structure.
# System: macrophages
# Conditions: via alpha7nAChR; cited from earlier work
smiles,measurement,value
CC(=O)OCC[N+](C)(C)C [Acetylcholine],production of TNF and HMGB1 in macrophages,inhibits the production of both TNF and HMGB1
